# Structures can show the parent of a compound that is named as a salt. Some of the results follow. Hit calls seldom repeat between salt and free forms of one compound.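 In K562 cells expressing nanoluciferase-fused kinases, luminescence was recorded at 4 h intervals between 2 and 18 h, normalized as percent of control with DMSO at 100% and a positive control at 0%. A significant (2 sigma) signal drop marks a time point as decreased. The authors' rule for a hit is not shown and takes in more than the number of time points.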
# Sequences of proteins named here, by UniProt entry; tags and fusion partners are left off. A change or cut given only in a name is not applied to a line headed by its entry.
# UniProt P07949, whole entry, looked up: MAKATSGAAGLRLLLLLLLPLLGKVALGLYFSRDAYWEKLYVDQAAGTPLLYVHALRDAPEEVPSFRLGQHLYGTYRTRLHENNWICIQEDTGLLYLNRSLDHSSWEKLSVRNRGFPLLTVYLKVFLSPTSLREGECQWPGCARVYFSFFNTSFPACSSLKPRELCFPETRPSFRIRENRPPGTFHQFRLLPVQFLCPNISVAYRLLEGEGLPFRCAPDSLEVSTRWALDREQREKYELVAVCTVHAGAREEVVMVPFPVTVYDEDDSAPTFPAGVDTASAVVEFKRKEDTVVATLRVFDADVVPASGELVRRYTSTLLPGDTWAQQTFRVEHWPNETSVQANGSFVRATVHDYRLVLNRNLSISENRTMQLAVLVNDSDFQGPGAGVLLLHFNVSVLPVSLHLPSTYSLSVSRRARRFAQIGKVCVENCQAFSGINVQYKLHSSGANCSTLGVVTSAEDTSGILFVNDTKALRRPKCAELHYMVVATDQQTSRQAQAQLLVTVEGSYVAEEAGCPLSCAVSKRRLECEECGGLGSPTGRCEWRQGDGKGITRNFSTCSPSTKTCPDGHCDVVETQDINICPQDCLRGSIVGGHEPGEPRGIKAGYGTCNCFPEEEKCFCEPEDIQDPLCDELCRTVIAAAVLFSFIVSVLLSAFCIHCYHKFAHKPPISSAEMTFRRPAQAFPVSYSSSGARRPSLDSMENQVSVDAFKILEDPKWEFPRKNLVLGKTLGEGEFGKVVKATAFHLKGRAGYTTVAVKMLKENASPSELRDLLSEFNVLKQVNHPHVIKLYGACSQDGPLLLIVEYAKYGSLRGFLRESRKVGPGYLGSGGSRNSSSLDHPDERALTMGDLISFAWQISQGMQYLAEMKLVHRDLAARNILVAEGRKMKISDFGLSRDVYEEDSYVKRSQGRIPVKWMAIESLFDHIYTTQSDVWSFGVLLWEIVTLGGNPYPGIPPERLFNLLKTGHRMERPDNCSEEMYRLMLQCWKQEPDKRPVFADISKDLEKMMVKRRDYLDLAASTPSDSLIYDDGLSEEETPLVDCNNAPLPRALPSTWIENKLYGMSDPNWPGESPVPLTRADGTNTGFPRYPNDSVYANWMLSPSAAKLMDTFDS
# UniProt P07949, whole entry M918T, looked up: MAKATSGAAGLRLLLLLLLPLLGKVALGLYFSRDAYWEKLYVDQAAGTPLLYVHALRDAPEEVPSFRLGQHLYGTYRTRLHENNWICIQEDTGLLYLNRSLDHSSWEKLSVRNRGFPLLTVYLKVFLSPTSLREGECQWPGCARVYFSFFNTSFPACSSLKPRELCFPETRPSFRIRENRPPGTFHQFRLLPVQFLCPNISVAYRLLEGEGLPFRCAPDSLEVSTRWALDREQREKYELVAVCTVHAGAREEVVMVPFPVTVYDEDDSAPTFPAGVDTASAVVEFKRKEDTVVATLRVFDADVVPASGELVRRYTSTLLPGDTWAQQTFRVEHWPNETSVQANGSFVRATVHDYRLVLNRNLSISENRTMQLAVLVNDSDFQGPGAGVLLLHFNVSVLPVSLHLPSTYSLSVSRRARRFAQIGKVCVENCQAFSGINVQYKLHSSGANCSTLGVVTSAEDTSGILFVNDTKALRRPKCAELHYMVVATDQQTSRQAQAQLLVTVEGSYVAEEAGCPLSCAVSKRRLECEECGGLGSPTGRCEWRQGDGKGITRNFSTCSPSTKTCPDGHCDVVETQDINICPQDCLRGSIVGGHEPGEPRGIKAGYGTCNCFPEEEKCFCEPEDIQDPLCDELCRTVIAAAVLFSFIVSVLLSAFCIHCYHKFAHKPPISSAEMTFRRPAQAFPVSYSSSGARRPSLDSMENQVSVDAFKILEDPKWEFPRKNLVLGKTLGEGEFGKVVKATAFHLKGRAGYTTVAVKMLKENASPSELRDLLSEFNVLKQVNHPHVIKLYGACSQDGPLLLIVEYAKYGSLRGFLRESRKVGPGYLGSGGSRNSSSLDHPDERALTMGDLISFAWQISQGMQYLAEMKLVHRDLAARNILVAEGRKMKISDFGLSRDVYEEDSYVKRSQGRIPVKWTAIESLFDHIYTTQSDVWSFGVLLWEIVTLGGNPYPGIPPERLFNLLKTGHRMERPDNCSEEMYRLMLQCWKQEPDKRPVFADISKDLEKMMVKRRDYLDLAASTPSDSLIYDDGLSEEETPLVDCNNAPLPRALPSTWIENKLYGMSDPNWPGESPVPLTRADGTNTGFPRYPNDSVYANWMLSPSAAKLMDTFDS
# UniProt Q01974, whole entry: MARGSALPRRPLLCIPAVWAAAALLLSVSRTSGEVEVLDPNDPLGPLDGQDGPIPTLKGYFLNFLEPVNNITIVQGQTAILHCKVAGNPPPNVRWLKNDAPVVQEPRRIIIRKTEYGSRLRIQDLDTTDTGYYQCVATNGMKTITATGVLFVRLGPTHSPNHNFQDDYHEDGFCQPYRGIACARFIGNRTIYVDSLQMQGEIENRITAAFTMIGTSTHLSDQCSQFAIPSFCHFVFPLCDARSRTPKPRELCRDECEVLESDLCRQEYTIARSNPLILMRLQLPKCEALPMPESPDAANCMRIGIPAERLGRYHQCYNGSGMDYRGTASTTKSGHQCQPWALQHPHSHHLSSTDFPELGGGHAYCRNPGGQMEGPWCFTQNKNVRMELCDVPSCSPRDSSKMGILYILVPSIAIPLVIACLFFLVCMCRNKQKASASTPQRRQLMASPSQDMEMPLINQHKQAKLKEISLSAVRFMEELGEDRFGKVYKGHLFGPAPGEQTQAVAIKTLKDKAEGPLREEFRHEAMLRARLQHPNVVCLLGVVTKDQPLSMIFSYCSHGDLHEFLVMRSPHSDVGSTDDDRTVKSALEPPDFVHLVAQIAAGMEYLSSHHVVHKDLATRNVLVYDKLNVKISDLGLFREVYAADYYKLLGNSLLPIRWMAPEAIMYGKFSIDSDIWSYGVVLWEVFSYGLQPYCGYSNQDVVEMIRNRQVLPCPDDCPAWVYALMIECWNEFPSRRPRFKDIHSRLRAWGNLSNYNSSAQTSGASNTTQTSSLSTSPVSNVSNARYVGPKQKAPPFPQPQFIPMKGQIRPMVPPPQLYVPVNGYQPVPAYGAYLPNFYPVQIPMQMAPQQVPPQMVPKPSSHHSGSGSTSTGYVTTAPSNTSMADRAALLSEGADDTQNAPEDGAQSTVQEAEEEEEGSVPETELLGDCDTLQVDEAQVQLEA
# UniProt Q15418, whole entry: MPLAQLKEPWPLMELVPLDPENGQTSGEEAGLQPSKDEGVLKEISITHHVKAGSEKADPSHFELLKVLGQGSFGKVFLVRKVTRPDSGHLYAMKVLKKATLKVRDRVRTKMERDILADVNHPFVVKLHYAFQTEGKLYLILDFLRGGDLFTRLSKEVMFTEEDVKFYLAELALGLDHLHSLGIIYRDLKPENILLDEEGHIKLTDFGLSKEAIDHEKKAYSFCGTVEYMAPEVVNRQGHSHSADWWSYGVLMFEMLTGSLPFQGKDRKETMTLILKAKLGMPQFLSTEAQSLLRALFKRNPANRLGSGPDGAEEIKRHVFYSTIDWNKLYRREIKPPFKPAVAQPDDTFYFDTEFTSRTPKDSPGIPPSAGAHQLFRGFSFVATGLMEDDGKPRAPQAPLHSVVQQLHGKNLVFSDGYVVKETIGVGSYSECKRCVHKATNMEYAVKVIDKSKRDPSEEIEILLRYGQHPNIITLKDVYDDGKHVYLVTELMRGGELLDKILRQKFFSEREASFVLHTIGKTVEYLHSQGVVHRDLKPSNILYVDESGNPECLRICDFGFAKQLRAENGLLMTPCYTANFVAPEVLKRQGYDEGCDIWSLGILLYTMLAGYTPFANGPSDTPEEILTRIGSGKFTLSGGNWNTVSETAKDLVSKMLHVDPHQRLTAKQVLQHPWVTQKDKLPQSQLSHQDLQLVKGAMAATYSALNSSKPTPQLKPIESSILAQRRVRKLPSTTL
# UniProt Q9Y6E0: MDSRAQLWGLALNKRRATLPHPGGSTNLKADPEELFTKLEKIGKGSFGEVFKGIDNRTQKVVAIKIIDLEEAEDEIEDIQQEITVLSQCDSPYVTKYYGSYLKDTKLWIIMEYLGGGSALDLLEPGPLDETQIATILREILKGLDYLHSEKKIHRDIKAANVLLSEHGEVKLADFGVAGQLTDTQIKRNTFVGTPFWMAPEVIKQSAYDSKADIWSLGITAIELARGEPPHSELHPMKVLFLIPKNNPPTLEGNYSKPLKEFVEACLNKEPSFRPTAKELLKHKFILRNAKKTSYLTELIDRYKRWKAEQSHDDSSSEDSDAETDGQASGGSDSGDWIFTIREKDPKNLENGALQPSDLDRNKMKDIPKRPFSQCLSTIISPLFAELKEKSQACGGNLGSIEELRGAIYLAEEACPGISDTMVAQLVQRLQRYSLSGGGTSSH
# UniProt Q15208: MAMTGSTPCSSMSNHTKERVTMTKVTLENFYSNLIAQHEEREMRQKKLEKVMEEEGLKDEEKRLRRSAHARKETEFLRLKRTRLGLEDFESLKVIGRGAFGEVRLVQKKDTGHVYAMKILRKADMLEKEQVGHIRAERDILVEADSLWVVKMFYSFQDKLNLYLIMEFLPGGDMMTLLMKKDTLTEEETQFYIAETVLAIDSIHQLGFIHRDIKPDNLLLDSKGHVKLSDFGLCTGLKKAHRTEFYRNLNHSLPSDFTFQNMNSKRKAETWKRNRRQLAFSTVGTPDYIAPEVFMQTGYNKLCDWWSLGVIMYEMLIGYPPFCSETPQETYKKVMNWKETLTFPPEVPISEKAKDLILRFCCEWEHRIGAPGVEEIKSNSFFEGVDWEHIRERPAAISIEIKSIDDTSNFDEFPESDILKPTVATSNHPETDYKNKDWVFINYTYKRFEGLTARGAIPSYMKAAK
# UniProt P43403: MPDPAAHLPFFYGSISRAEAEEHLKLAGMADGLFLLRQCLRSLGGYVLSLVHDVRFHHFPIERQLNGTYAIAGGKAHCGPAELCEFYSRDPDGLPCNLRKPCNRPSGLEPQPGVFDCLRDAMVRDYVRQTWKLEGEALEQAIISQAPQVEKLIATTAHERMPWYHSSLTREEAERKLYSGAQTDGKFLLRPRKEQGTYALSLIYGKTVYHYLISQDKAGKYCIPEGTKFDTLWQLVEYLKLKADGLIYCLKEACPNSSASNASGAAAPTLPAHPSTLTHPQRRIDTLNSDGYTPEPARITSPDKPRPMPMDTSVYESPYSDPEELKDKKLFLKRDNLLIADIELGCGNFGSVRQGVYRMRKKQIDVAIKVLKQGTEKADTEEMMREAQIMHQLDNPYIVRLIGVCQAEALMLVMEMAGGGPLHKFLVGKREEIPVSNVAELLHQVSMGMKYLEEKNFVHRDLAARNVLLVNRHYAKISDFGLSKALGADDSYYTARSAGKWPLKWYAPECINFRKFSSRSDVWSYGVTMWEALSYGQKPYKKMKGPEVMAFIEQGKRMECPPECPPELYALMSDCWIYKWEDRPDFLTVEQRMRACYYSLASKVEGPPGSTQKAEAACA
# UniProt P31749: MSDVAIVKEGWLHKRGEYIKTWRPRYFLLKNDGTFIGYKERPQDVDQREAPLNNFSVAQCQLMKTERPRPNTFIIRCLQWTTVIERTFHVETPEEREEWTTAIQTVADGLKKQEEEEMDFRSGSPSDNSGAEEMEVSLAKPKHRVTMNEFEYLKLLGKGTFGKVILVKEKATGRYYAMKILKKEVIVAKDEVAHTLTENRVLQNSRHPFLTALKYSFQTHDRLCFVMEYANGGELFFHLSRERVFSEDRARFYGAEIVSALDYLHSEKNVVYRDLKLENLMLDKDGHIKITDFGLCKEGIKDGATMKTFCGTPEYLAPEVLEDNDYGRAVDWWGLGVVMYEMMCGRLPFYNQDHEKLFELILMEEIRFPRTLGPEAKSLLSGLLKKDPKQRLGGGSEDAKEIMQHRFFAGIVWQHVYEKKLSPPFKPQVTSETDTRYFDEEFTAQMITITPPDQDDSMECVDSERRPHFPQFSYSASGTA
# UniProt P07947, whole entry, looked up: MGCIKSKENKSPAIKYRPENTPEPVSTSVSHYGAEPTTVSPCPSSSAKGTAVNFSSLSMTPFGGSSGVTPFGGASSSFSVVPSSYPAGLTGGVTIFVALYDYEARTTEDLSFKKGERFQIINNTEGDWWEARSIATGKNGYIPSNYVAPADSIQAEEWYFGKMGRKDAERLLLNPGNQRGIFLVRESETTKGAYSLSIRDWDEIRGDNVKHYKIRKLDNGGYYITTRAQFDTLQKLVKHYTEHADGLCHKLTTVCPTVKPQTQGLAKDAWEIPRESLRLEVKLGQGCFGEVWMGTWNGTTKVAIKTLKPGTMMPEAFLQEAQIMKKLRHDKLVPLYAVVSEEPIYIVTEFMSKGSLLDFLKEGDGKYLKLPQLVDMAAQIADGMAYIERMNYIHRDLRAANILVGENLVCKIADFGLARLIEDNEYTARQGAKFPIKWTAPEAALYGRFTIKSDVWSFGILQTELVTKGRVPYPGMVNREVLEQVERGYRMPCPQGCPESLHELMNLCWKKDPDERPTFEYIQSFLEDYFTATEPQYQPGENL
# What was measured:
# Details in all cases: K562; 2-18 h
# RET = RET (UniProt P07949); assay: kinase-Nluc reporter destabilization hit call (1 = scored as downregulated) (binary); higher = compound decreases kinase abundance
# [1] = target: RET_M918T (clone: RET_mut) (UniProt P07949); assay: as above
# RIOK1 = RIOK1 (UniProt Q9BRS2); assay: as above
# RIPK1 = RIPK1 (UniProt Q13546); assay: as above
# RIPK2 = RIPK2 (UniProt O43353); assay: as above
# ROR2 = ROR2 (UniProt Q01974); assay: as above
# RPS6KA1 = RPS6KA1 (UniProt Q15418); assay: as above
# SPHK1 = SPHK1 (UniProt Q9NYA1); assay: as above
# SRC = SRC (UniProt P12931); assay: as above
# STK24 = STK24 (UniProt Q9Y6E0); assay: as above
# STK38 = STK38 (UniProt Q15208); assay: as above
# SYK = SYK (UniProt P43405); assay: as above
# TEC = TEC (UniProt P42680); assay: as above
# TYK2 = TYK2 (UniProt P29597); assay: as above
# ULK3 = ULK3 (UniProt Q6PHR2); assay: as above
# ZAK = ZAK (UniProt Q9NYL2); assay: as above
# ZAP70 = ZAP70 (UniProt P43403); assay: as above
# ABL1 = ABL1 (UniProt P00519); assay: number of time points (of 5) at which kinase-Nluc abundance scored as decreased, DMSO-normalised (count); higher = more persistent destabilization
# AKT1 = AKT1 (UniProt P31749); assay: as above
# YES1 = YES1 (UniProt P07947); assay: kinase-Nluc reporter destabilization hit call (1 = scored as downregulated) (binary); higher = compound decreases kinase abundance
Compound,kinase-Nluc reporter destabilization hit call (RET),kinase-Nluc reporter destabilization hit call [1],kinase-Nluc reporter destabilization hit call (RIOK1),kinase-Nluc reporter destabilization hit call (RIPK1),kinase-Nluc reporter destabilization hit call (RIPK2),kinase-Nluc reporter destabilization hit call (ROR2),kinase-Nluc reporter destabilization hit call (RPS6KA1),kinase-Nluc reporter destabilization hit call (SPHK1),kinase-Nluc reporter destabilization hit call (SRC),kinase-Nluc reporter destabilization hit call (STK24),kinase-Nluc reporter destabilization hit call (STK38),kinase-Nluc reporter destabilization hit call (SYK),kinase-Nluc reporter destabilization hit call (TEC),kinase-Nluc reporter destabilization hit call (TYK2),kinase-Nluc reporter destabilization hit call (ULK3),kinase-Nluc reporter destabilization hit call (ZAK),kinase-Nluc reporter destabilization hit call (ZAP70),number of time points (ABL1),number of time points (AKT1),kinase-Nluc reporter destabilization hit call (YES1)
O=C(c1ccc(-c2ccc(Cl)cc2)o1)N(Cc1ccccn1)c1ccc(N2CCNCC2)cc1 [MK2-IN-1 (hydrochloride)] (10 µM),inactive: 0,inactive: 0,inactive: 0,inactive: 0,inactive: 0,inactive: 0,inactive: 0,inactive: 0,inactive: 0,inactive: 0,inactive: 0,inactive: 0,inactive: 0,inactive: 0,inactive: 0,inactive: 0,inactive: 0,0,0,
Cc1cc(CS(=O)(=O)c2ccccc2)cc(OCc2ccc(CN3CCC[C@@H]3CO)cc2)c1 [PF-543 (Citrate)] (10 µM),inactive: 0,inactive: 0,inactive: 0,inactive: 0,inactive: 0,inactive: 0,inactive: 0,,inactive: 0,inactive: 0,inactive: 0,inactive: 0,inactive: 0,inactive: 0,inactive: 0,inactive: 0,inactive: 0,0,0,inactive: 0
CC(=O)NCC(=O)N1[C@@H]2CC[C@H]1c1ccc(Nc3ncc(C(F)(F)F)c(NC4CCC4)n3)cc12 (2.5 µM),inactive: 0,inactive: 0,inactive: 0,inactive: 0,inactive: 0,inactive: 0,inactive: 0,inactive: 0,inactive: 0,inactive: 0,inactive: 0,,inactive: 0,inactive: 0,active: 1,inactive: 0,inactive: 0,4,0,inactive: 0
Cc1nc(N)sc1-c1ccnc(Nc2ccc(N3CCOCC3)cc2)n1 (10 µM),inactive: 0,inactive: 0,inactive: 0,inactive: 0,inactive: 0,inactive: 0,inactive: 0,inactive: 0,inactive: 0,inactive: 0,inactive: 0,inactive: 0,inactive: 0,inactive: 0,inactive: 0,,inactive: 0,4,0,inactive: 0
Cc1c[nH]c2ccccc12 [Skatole] (10 µM),inactive: 0,inactive: 0,inactive: 0,inactive: 0,inactive: 0,inactive: 0,inactive: 0,inactive: 0,inactive: 0,inactive: 0,inactive: 0,inactive: 0,inactive: 0,inactive: 0,inactive: 0,inactive: 0,inactive: 0,0,0,inactive: 0
O=C1c2ccccc2-c2n[nH]c3cccc1c23 (10 µM),inactive: 0,inactive: 0,inactive: 0,inactive: 0,inactive: 0,inactive: 0,inactive: 0,inactive: 0,inactive: 0,inactive: 0,inactive: 0,,inactive: 0,inactive: 0,inactive: 0,inactive: 0,inactive: 0,0,0,inactive: 0
C=CC(=O)Nc1ccc2ncnc(Nc3cccc(Br)c3)c2c1 (10 µM),inactive: 0,inactive: 0,inactive: 0,inactive: 0,inactive: 0,inactive: 0,inactive: 0,inactive: 0,inactive: 0,inactive: 0,inactive: 0,inactive: 0,inactive: 0,inactive: 0,inactive: 0,inactive: 0,inactive: 0,0,0,inactive: 0
Cc1ccc(S(=O)(=O)Nc2nc3ccccc3nc2Nc2ccc3nsnc3c2)cc1 [Pilaralisib analogue] (10 µM),inactive: 0,inactive: 0,inactive: 0,inactive: 0,inactive: 0,inactive: 0,inactive: 0,inactive: 0,inactive: 0,,inactive: 0,inactive: 0,inactive: 0,inactive: 0,active: 1,inactive: 0,inactive: 0,2,0,inactive: 0
CCc1nc(-c2cccc(C)c2)c(-c2ccnc(NC(=O)c3ccccc3)c2)s1 (10 µM),inactive: 0,inactive: 0,inactive: 0,inactive: 0,inactive: 0,inactive: 0,inactive: 0,inactive: 0,inactive: 0,inactive: 0,inactive: 0,inactive: 0,inactive: 0,inactive: 0,inactive: 0,inactive: 0,inactive: 0,0,0,inactive: 0
Cc1c(Cn2c(C)nc3c(C(=O)O)cc(N4CCOCC4)cc32)cccc1C(F)(F)F (10 µM),inactive: 0,inactive: 0,,,,inactive: 0,inactive: 0,inactive: 0,inactive: 0,inactive: 0,inactive: 0,inactive: 0,inactive: 0,inactive: 0,inactive: 0,,,0,0,inactive: 0
O=C1NC(=NCc2cccs2)S/C1=C\c1ccc2ncccc2c1 (10 µM),inactive: 0,inactive: 0,inactive: 0,inactive: 0,inactive: 0,inactive: 0,inactive: 0,inactive: 0,inactive: 0,inactive: 0,inactive: 0,inactive: 0,inactive: 0,inactive: 0,inactive: 0,inactive: 0,inactive: 0,0,0,inactive: 0
Cc1cc(C)c(/C=C2\C(=O)Nc3ccccc32)[nH]1 [Semaxinib] (10 µM),,,inactive: 0,inactive: 0,inactive: 0,inactive: 0,inactive: 0,inactive: 0,inactive: 0,inactive: 0,inactive: 0,,inactive: 0,inactive: 0,inactive: 0,,inactive: 0,0,0,inactive: 0
CN(c1ncccc1CNc1nc(Nc2ccc3c(c2)CC(=O)N3)ncc1C(F)(F)F)S(C)(=O)=O (2.5 µM),inactive: 0,inactive: 0,inactive: 0,inactive: 0,inactive: 0,inactive: 0,inactive: 0,inactive: 0,inactive: 0,inactive: 0,inactive: 0,inactive: 0,inactive: 0,inactive: 0,inactive: 0,,inactive: 0,0,0,inactive: 0
CC(C)=CC/C=C(\C)[C@H]1CC[C@]2(C)[C@@H]1[C@H](O)C[C@@H]1[C@@]3(C)CC[C@H](O[C@@H]4O[C@H](CO)[C@@H](O)[C@H](O)[C@H]4O[C@@H]4O[C@H](CO)[C@@H](O)[C@H](O)[C@H]4O)C(C)(C)[C@@H]3CC[C@]12C [Ginsenoside Rg5] (10 µM),inactive: 0,inactive: 0,inactive: 0,inactive: 0,inactive: 0,inactive: 0,inactive: 0,inactive: 0,inactive: 0,inactive: 0,inactive: 0,inactive: 0,inactive: 0,inactive: 0,inactive: 0,inactive: 0,inactive: 0,0,0,inactive: 0
COCCOc1cc2nccc(Nc3n[nH]c(C)c3C)c2cc1S(=O)(=O)C(C)(C)C [RIP2 kinase inhibitor 2] (2.5 µM),inactive: 0,inactive: 0,inactive: 0,inactive: 0,,inactive: 0,inactive: 0,inactive: 0,inactive: 0,inactive: 0,inactive: 0,inactive: 0,inactive: 0,inactive: 0,inactive: 0,inactive: 0,inactive: 0,0,0,inactive: 0
COc1ccc2c(NC(=O)Nc3cccc(C(F)(F)F)n3)ccnc2c1 (10 µM),inactive: 0,inactive: 0,inactive: 0,inactive: 0,inactive: 0,inactive: 0,inactive: 0,inactive: 0,inactive: 0,inactive: 0,inactive: 0,,inactive: 0,inactive: 0,inactive: 0,,inactive: 0,0,0,inactive: 0
COc1cc(Nc2ncc3c(n2)-c2ccc(Cl)cc2C(c2c(F)cccc2OC)=NC3)ccc1C(=O)O [Alisertib] (2.5 µM),,,inactive: 0,inactive: 0,inactive: 0,inactive: 0,inactive: 0,inactive: 0,inactive: 0,inactive: 0,inactive: 0,,inactive: 0,inactive: 0,inactive: 0,,inactive: 0,0,0,inactive: 0
CN(C)C[C@@H]1CCn2cc(c3ccccc32)C2=C(C(=O)NC2=O)c2cn(c3ccccc23)CCO1 [Ruboxistaurin (hydrochloride)] (10 µM),inactive: 0,inactive: 0,inactive: 0,inactive: 0,inactive: 0,inactive: 0,inactive: 0,inactive: 0,inactive: 0,inactive: 0,inactive: 0,inactive: 0,inactive: 0,inactive: 0,inactive: 0,inactive: 0,inactive: 0,0,0,inactive: 0
Cc1ccc(NC(=O)Nc2nnc(Sc3ncnc4cc(OCCCN5CCOCC5)ccc34)s2)cc1 (10 µM),,,inactive: 0,inactive: 0,inactive: 0,inactive: 0,inactive: 0,inactive: 0,inactive: 0,inactive: 0,inactive: 0,inactive: 0,inactive: 0,inactive: 0,inactive: 0,inactive: 0,inactive: 0,0,0,inactive: 0
COc1cc2c(Nc3ccc(NC(=O)c4ccccc4)cc3)ncnc2cc1OCCCN1CCOCC1 (10 µM),inactive: 0,inactive: 0,inactive: 0,inactive: 0,inactive: 0,inactive: 0,inactive: 0,inactive: 0,inactive: 0,inactive: 0,inactive: 0,inactive: 0,inactive: 0,inactive: 0,inactive: 0,inactive: 0,inactive: 0,5,0,inactive: 0

# Pulled by structure from the entries so far:
Compound,kinase-Nluc reporter destabilization hit call (RET),kinase-Nluc reporter destabilization hit call [1],kinase-Nluc reporter destabilization hit call (RIOK1),kinase-Nluc reporter destabilization hit call (RIPK1),kinase-Nluc reporter destabilization hit call (RIPK2),kinase-Nluc reporter destabilization hit call (ROR2),kinase-Nluc reporter destabilization hit call (RPS6KA1),kinase-Nluc reporter destabilization hit call (SPHK1),kinase-Nluc reporter destabilization hit call (SRC),kinase-Nluc reporter destabilization hit call (STK24),kinase-Nluc reporter destabilization hit call (STK38),kinase-Nluc reporter destabilization hit call (SYK),kinase-Nluc reporter destabilization hit call (TEC),kinase-Nluc reporter destabilization hit call (TYK2),kinase-Nluc reporter destabilization hit call (ULK3),kinase-Nluc reporter destabilization hit call (ZAK),kinase-Nluc reporter destabilization hit call (ZAP70),number of time points (ABL1),number of time points (AKT1),kinase-Nluc reporter destabilization hit call (YES1)
Cc1c(Cn2c(C)nc3c(C(=O)O)cc(N4CCOCC4)cc32)cccc1C(F)(F)F (10 µM),inactive: 0,inactive: 0,,,,inactive: 0,inactive: 0,inactive: 0,inactive: 0,inactive: 0,inactive: 0,inactive: 0,inactive: 0,inactive: 0,inactive: 0,,,0,0,inactive: 0
Cc1nc(N)sc1-c1ccnc(Nc2ccc(N3CCOCC3)cc2)n1 (10 µM),inactive: 0,inactive: 0,inactive: 0,inactive: 0,inactive: 0,inactive: 0,inactive: 0,inactive: 0,inactive: 0,inactive: 0,inactive: 0,inactive: 0,inactive: 0,inactive: 0,inactive: 0,,inactive: 0,4,0,inactive: 0

# — the supplement of paper PMC12823440, “Inhibitors supercharge kinase turnover through native proteolytic circuits” (Nature, 2025)
